In the supplement of paper PMC10849652:
Some of the results follow.

By UniProt entry, the sequences of proteins in these tests, tags left out. Where a name states a change or a piece, a line headed by the entry shows the natural chain unless it says otherwise.
UniProt Q9Y6I3: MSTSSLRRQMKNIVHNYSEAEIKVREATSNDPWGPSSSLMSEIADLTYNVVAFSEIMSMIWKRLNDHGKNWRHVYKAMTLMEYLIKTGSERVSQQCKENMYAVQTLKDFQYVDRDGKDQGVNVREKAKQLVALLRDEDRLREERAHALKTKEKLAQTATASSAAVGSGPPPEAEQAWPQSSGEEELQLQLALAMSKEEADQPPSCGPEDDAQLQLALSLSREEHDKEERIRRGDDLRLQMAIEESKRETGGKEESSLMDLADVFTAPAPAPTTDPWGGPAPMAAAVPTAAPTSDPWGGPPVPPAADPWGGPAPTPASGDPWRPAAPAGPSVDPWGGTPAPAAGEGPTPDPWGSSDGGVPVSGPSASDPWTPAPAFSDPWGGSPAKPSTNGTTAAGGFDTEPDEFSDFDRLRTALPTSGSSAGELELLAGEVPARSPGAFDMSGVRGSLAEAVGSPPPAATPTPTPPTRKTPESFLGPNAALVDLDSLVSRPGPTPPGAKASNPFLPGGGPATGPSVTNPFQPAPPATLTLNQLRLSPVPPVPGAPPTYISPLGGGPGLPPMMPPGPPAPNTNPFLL
UniProt Q9UBQ5, whole entry, looked up: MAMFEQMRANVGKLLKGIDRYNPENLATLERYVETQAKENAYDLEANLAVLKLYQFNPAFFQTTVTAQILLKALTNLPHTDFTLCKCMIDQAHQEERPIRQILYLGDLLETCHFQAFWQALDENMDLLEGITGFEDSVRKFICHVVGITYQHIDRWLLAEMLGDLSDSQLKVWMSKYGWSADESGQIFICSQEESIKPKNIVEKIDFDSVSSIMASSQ
UniProt Q9NRA8: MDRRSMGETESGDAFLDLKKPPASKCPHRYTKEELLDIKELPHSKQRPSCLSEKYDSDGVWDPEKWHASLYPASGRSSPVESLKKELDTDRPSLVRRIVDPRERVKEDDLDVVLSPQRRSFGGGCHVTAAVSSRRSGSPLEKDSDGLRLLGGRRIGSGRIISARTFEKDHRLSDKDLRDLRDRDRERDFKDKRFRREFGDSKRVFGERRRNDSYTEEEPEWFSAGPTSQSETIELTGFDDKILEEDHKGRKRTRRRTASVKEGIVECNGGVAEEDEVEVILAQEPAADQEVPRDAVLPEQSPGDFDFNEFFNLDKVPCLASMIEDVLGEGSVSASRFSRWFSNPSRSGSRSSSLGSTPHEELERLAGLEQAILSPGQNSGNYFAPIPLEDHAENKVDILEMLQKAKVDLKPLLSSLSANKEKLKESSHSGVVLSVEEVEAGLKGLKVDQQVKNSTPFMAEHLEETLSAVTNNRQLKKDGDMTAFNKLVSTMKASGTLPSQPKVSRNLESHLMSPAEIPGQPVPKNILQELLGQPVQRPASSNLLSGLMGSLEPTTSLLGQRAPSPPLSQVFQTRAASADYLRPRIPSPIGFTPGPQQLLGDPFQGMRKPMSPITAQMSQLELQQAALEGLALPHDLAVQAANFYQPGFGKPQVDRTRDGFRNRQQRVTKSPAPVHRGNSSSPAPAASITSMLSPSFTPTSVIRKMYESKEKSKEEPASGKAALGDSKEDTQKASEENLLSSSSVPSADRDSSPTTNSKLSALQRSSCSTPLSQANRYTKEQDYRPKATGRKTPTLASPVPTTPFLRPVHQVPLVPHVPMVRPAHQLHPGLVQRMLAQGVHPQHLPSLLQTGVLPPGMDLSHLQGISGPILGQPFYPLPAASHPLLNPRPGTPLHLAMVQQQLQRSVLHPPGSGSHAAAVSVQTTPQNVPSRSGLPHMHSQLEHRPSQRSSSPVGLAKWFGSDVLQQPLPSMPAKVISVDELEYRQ
UniProt Q9NZ08: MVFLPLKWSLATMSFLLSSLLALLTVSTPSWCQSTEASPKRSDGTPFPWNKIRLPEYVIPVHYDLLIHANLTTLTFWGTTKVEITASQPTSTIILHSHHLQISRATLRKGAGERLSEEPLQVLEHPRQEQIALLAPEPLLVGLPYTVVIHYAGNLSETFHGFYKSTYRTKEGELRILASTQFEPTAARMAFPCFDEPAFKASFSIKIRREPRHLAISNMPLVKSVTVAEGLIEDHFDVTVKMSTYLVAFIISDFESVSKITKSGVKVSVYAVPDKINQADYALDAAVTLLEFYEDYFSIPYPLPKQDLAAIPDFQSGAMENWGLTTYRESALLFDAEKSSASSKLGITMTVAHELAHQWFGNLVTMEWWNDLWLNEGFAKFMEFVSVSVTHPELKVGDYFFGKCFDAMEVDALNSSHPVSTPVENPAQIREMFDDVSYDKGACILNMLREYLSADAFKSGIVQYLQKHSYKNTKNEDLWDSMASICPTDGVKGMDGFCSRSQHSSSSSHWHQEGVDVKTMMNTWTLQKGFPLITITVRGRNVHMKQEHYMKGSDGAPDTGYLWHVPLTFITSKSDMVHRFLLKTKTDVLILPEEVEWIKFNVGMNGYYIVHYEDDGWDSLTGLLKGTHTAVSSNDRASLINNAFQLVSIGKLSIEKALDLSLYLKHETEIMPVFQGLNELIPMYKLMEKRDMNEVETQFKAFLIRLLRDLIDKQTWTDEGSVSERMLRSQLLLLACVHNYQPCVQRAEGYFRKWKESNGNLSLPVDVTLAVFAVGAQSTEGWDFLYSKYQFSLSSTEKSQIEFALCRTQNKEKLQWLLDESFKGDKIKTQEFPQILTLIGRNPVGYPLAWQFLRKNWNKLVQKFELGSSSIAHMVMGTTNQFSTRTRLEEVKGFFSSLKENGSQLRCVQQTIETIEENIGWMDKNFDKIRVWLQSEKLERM

How the values were obtained:
Experiment in all cases: log2 fold change, soluble protein after heating vs DMSO (PISA); higher = thermal stabilisation; K562 lysate, 10 uM; active = over 0.2 and 3.5 SD of the protein, either way, in both replicates (recomputed)
lapatinib = compound: CS(=O)(=O)CCNCc1ccc(-c2ccc3ncnc(Nc4ccc(OCc5cccc(F)c5)c(Cl)c4)c3c2)o1 [lapatinib]
Procedure, shortened: (§1)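 Quantification was by TMTpro 16plex LC-MS/MS with equalised channel sums, applied to the supernatant after 21,000xg for 90 min. Samples were crude K562 extract at 1 mg/mL protein in PBS pH 7.4 with 1 mM MgCl2, treated with 10 μM compound for 30 min, heated for 3 min across 48°C-58°C, pooled and brought to 0.5% NP-40 at 4°C. Values are log-two fold changes in thermal stability relative to solvent controls, from duplicates.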

pictilisib = compound: CS(=O)(=O)N1CCN(Cc2cc3nc(-c4cccc5[nH]ncc45)nc(N4CCOCC4)c3s2)CC1 [pictilisib]
Procedure, shortened: as §1

crizotinib = compound: C[C@@H](Oc1cc(-c2cnn(C3CCNCC3)c2)cnc1N)c1c(Cl)ccc(F)c1Cl [crizotinib]
Procedure, shortened: as §1

[1] = compound: C[C@H](C1=CC=C(C=C1)C(=O)NC2=C3C=CNC3=NC=C2)N
Procedure, shortened: as §1

duvelisib = compound: C[C@H](Nc1ncnc2nc[nH]c12)c1cc2cccc(Cl)c2c(=O)n1-c1ccccc1 [duvelisib]
Procedure, shortened: as §1

gandotinib = compound: Cc1cc(Nc2cc(CN3CCOCC3)c3nc(C)c(Cc4ccc(Cl)cc4F)n3n2)n[nH]1 [gandotinib]
Procedure, shortened: as §1

tozasertib = compound: Cc1cc(Nc2cc(N3CCN(C)CC3)nc(Sc3ccc(NC(=O)C4CC4)cc3)n2)n[nH]1 [tozasertib]
Procedure, shortened: as §1

doramapimod = compound: Cc1ccc(-n2nc(C(C)(C)C)cc2NC(=O)Nc2ccc(OCCN3CCOCC3)c3ccccc23)cc1 [doramapimod]
Procedure, shortened: as §1

bafetinib = compound: Cc1ccc(NC(=O)c2ccc(CN3CC[C@H](N(C)C)C3)c(C(F)(F)F)c2)cc1Nc1nccc(-c2cncnc2)n1 [bafetinib]
Procedure, shortened: as §1

[2] = compound: Cc1cccc(CC(=O)N2CCc3c2ccc(-c2cn(C)c4ncnc(N)c24)c3F)n1
Procedure, shortened: as §1

nilotinib = compound: Cc1cn(-c2cc(NC(=O)c3ccc(C)c(Nc4nccc(-c5cccnc5)n4)c3)cc(C(F)(F)F)c2)cn1 [nilotinib]
Procedure, shortened: as §1

[3] = compound: Cc1nc(Nc2n[nH]c3c2CN(C(=O)N[C@H](CN(C)C)c2ccccc2)C3(C)C)c2sccc2n1
Procedure, shortened: as §1

dasatinib = compound: Cc1nc(Nc2ncc(C(=O)Nc3c(C)cccc3Cl)s2)cc(N2CCN(CCO)CC2)n1 [dasatinib]
Procedure, shortened: as §1

[4] = compound: Cc1ncc(-c2ccnc(Nc3ccc(S(C)(=O)=O)cc3)n2)n1C(C)C
Procedure, shortened: as §1

[5] = compound: Cn1cc(-c2ccc3c(c2)CCN3C(=O)Cc2cccc(C(F)(F)F)c2)c2c(N)ncnc21
Procedure, shortened: as §1

quisinostat = compound: Cn1cc(CNCC2CCN(c3ncc(C(=O)NO)cn3)CC2)c2ccccc21 [quisinostat]
Procedure, shortened: as §1

tipifarnib = compound: Cn1cncc1[C@@](N)(c1ccc(Cl)cc1)c1ccc2c(c1)c(-c1cccc(Cl)c1)cc(=O)n2C [tipifarnib]
Procedure, shortened: as §1

[6] = compound: NC(=O)Nc1cc(-c2cccc(F)c2)sc1C(=O)N[C@H]1CCCNC1
Procedure, shortened: as §1

[7] = compound: NC(=O)c1cnc(N[C@@H]2CCCC[C@@H]2N)nc1Nc1cccc(-n2nccn2)c1
Procedure, shortened: as §1

[8] = compound: NC1(c2ccc(-c3nc4ccn5c(=O)[nH]nc5c4cc3-c3ccccc3)cc2)CCC1
Procedure, shortened: as §1

Measured: log2 fold change

EPN1 (UniProt Q9Y6I3)
inactive: lapatinib 0.008 | pictilisib 0.011 | crizotinib 0.039 | [1] 0.088 | duvelisib -0.019 | gandotinib -0.007 | tozasertib -0.025 | doramapimod -0.023 | bafetinib -0.018 | [2] -0.035 | nilotinib 0.008 | [3] 0.017 | dasatinib 0.026 | [4] 0.009 | [5] -0.002 | quisinostat 0.076 | tipifarnib -0.007 | [6] -0.012 | [7] -0.012 | [8] 0.014

EIF3K (UniProt Q9UBQ5)
inactive: lapatinib -0.013 | pictilisib 0.018 | crizotinib -0.005 | [1] 0.009 | duvelisib 0.037 | gandotinib -0.049 | tozasertib 0.015 | doramapimod -0.046 | bafetinib -0.049 | [2] -0.021 | nilotinib 0.009 | [3] -0.034 | dasatinib -0.026 | [4] 0.024 | [5] -0.003 | quisinostat -0.003 | tipifarnib 0.003 | [6] 0.032 | [7] -0.009 | [8] 0.004

EIF4ENIF1 isoform 3 (UniProt Q9NRA8)
inactive: lapatinib 0.072 | pictilisib 0.024 | crizotinib 0.011 | [1] -0.03 | duvelisib 0.019 | gandotinib 0.047 | tozasertib 0.072 | doramapimod -0.048 | bafetinib 0.042 | [2] 0.028 | nilotinib 0.023 | [3] 0.021 | dasatinib -0.048 | [4] -0.031 | [5] 0.046 | quisinostat -0.056 | tipifarnib -0.003 | [6] 0.056 | [7] 0.014 | [8] 0.07

ERAP1 isoform 2 (UniProt Q9NZ08)
inactive: lapatinib -0.009 | pictilisib -0.005 | crizotinib 0.002 | [1] 0.01 | duvelisib -0.007 | gandotinib -0.001 | tozasertib -0.012 | doramapimod -0.011 | bafetinib -0.003 | [2] 0.004 | nilotinib 0.003 | [3] -0.013 | dasatinib 0.055 | [4] 0.012 | [5] 0.009 | quisinostat 0.011 | tipifarnib -0.01 | [6] 0.001 | [7] -0.002 | [8] -0.022
